Values from PubChem BioAssay AID1259327 (Drosophila RNAi Screening Center, 2017).
Purpose: 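Knock-downs altering cellular ATP with no metal added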. System: Drosophila S2R+ cells. Reagents: long dsRNA against Drosophila genes. Time to read-out: 5 days (water added on day 4, read one day later). Treatment: water added as vehicle, no metal, one day before read-out. Detection: 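Luciferase ATP signal per well, normalised to plate mean, duplicate average converted to z-score across plates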. Direction: ATP z-score: higher = more total ATP than typical wells; ATP luminescence: higher = more total ATP. Call rule: 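Called active when the ATP z-score exceeds 1.5 or falls below -1.5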. Calls: active = hit: ATP up or down; inactive = no clear ATP change.
The whole screen tested about 3,100 reagents; below is a part drawn at random. 378 of them (12%) were called active. 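Hits include both directions; z-score sign shows ATP rise or fall; raw luminescence values are not plate-normalised.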 Unmarked entries are inactive. No sequences are given here. Not given: the amount of reagent.

gene,dsRNA,"ATP z-score, duplicate mean","ATP luminescence, replicate 1 (RLU)","ATP luminescence, replicate 2 (RLU)"
Ir60d,DRSC04218,0.164,6.85e5,8.40e5
CG6052,DRSC10574,0.206,9.69e5,8.79e5
CLS,DRSC15642,-0.561,2.76e5,6.96e5
CLS,DRSC28289,-0.581,7.49e5,7.57e5
snky,DRSC09838,0.864,9.52e5,1.06e6
snky,DRSC39770,1.05,6.32e5,4.67e5
E23,DRSC00593,-0.688,6.64e5,6.43e5
E23,DRSC25491,0.901,1.03e6,8.89e5
Eato,DRSC01891,0.284,4.73e5,5.27e5
Eato,DRSC03061,0.264,7.55e5,7.53e5
CG2121,DRSC06819,0.426,7.51e5,8.03e5
CG2121,DRSC06820,-1.19,4.93e5,5.30e5
CG30394,DRSC04074,0.115,7.39e5,7.38e5
CG30394,DRSC04260,-1.06,5.44e5,6.97e5
Efr,DRSC18322,0.806,7.63e5,7.72e5
Efr,DRSC26945,-0.859,8.72e5,1.01e6
sesB,DRSC20371,-1.64 (active),5.74e5,4.41e5
sesB,DRSC29874,-2.02 (active),4.39e5,3.78e5

Part of the list above, reformatted.
gene | dsRNA | ATP z-score, duplicate mean | ATP luminescence, replicate 1 (RLU) | ATP luminescence, replicate 2 (RLU)
CG30394 | DRSC04074 | 0.115 | 7.39e5 | 7.38e5
CG30394 | DRSC04260 | -1.06 | 5.44e5 | 6.97e5
Efr | DRSC18322 | 0.806 | 7.63e5 | 7.72e5
Efr | DRSC26945 | -0.859 | 8.72e5 | 1.01e6
sesB | DRSC20371 | -1.64 (active) | 5.74e5 | 4.41e5

The listing continues.
gene,dsRNA,"ATP z-score, duplicate mean","ATP luminescence, replicate 1 (RLU)","ATP luminescence, replicate 2 (RLU)"
CG13907,DRSC08377,0.574,7.79e5,8.06e5
CG13907,DRSC25983,-0.0521,8.18e5,8.70e5
wit,DRSC08741,-0.406,6.89e5,6.86e5
wit,DRSC26091,0.783,9.27e5,9.68e5
wit,DRSC37034,-1.8 (active),4.00e5,4.54e5
Grl43a,DRSC06383,-0.067,4.94e5,7.34e5
Ir25a,DRSC00462,0.414,7.74e5,7.66e5
Ir25a,DRSC26910,0.0428,7.88e5,9.18e5
Gr36c,DRSC02437,-0.0256,7.63e5,6.85e5
Gr36c,DRSC26305,0.692,8.91e5,9.82e5
